The list does not hold the whole screen: it gathers tests that were run many times, whatever their T/C, doses with no T/C, and many T/C values between a quarter and a half above the control. Other doses and runs of a compound stand elsewhere. T/C: endpoint of the treated group in % of that of the vehicle group. Some doses have a count of surviving animals in place of a T/C: the source files T/C as zero there, which appears to mark a toxic dose or a test without result, not a measured value. Some survivor counts are full or nearly so, which does not show that the dose was tolerated: the source hardly ever lists a survival T/C far under the control, and the zero likely stands for such cases as well. Counts of survivors are from the toxicity check (mostly the fifth day) where no day follows; animals may have died later. Schedules are NCI's codes, read here as Q, the interval in days (D) or hours (H), X, the number of doses. Marks such as (2×) give the number of equal values in this list. Where survival is the endpoint, the PubChem record calls one and a half times the control and up active, and a quarter to a half above the control has no call in these data; cut-offs in other NCI protocols can differ. Some entries were tested several times; the results are listed from low to high. Some T/C values are followed by the survivors on the day toxicity was checked, most often the fifth; without a count, all were alive then.
System: CD2F1 mice, L1210 leukemia ip, survival T/C
Assay: NCI In Vivo Anticancer Drug Screen. Data for tumor model L1210 Leukemia (intraperitoneal) in CD2F1 (CDF1) mice
Conditions: higher T/C = longer survival
In short: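 Read-out first: treated-group measurement over vehicle-control measurement, expressed as a ratio. Animals bore a transplanted tumor line and were dosed with compound or vehicle.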

[1] = T/C endpoint: mean survival time, dose: 400.0 mg/kg/injection, schedule: Q04DX002 (ip), vehicle: saline with Tween-80
[2] = T/C endpoint: mean survival time, dose: 400.0 mg/kg/injection, schedule: Q01DX001 (ip), vehicle: saline
[3] = T/C endpoint: mean survival time, dose: 400.0 mg/kg/injection, schedule: Q04DX003 (ip), vehicle: saline with Tween-80
[4] = T/C endpoint: mean survival time, dose: 300.0 mg/kg/injection, schedule: Q01DX001 (ip), vehicle: saline

[Co+3].[NH-]CC(=O)O.[NH-]CC(=O)O.[NH-]CC(=O)O
survivor count (T/C endpoint: mean survival time, dose: 100.0 mg/kg/injection, schedule: Q04DX002 (ip), vehicle: saline with Tween-80): 3 of 3 | survivor count (T/C endpoint: mean survival time, dose: 200.0 mg/kg/injection, schedule: Q04DX002 (ip), vehicle: saline with Tween-80): 3 of 3 | T/C [1]: 130 % of control | survivor count [1]: 1 of 3

CC(C)CC(N)C(=O)O (stereo not given) (tested in a mixture with another compound)
survivor count (T/C endpoint: median survival time, dose: 3.13 mg/kg/injection, schedule: Q04DX002 (ip), vehicle: saline): 1 of 3 | survivor count (T/C endpoint: median survival time, dose: 200.0 mg/kg/injection, schedule: Q04DX002 (ip), vehicle: saline): 0 of 3 | survivor count (T/C endpoint: median survival time, dose: 400.0 mg/kg/injection, schedule: Q04DX002 (ip), vehicle: saline): 0 of 3 (2×)

CN(C)CC(N)C(=O)O (stereo not given)
survivor count (T/C endpoint: mean survival time, dose: 25.0 mg/kg/injection, schedule: Q04DX002 (ip), vehicle: saline): 3 of 3

CSc1ncc(N=C=O)c(=O)[nH]1
survivor count (T/C endpoint: mean survival time, dose: 400.0 mg/kg/injection, schedule: Q01DX001 (ip), vehicle: saline with Tween-80): 0 of 6

O=c1sc(N=Nc2ccccc2)nn1-c1ccccc1
survivor count (T/C endpoint: mean survival time, dose: 400.0 mg/kg/injection, schedule: Q04DX003 (ip), vehicle: saline): 6 of 6

Oc1ccc(Br)cc1/C=N/c1nc(-c2ccccc2)cs1.Oc1ccc(Br)cc1/C=N/c1nc(-c2ccccc2)cs1.[Co]
survivor count [2]: 3 of 3

CCC1(OC(=O)CN2CCN(CCO)CC2)C(=O)OCc2c1cc1n(c2=O)Cc2cc3ccccc3nc2-1 (stereo not given)
T/C (T/C endpoint: median survival time, dose: 50.0 mg/kg/injection, schedule: Q04DX002 (ip), vehicle: water): 138 and 142 % of control

O=c1[nH]cc(F)c(=O)n1C1OC(CO)C(O)C1O (stereo not given)
T/C (T/C endpoint: mean survival time, dose: 1.0 mg/kg/injection, schedule: Q01DX005 (ip), vehicle: saline): 143 % of control | T/C (T/C endpoint: mean survival time, dose: 2.5 mg/kg/injection, schedule: Q03HX024 (ip), vehicle: saline): 139 % of control | T/C (T/C endpoint: mean survival time, dose: 2.5 mg/kg/injection, schedule: Q04DX003 (ip), vehicle: saline): 139 % of control | T/C (T/C endpoint: mean survival time, dose: 5.0 mg/kg/injection, schedule: Q01DX001 (ip), vehicle: saline): 146 % of control | T/C (T/C endpoint: mean survival time, dose: 5.0 mg/kg/injection, schedule: Q03HX008 (ip), vehicle: saline): 140 % of control | T/C (T/C endpoint: mean survival time, dose: 10.0 mg/kg/injection, schedule: Q01DX001 (ip), vehicle: saline): 143 % of control | T/C (T/C endpoint: mean survival time, dose: 10.0 mg/kg/injection, schedule: Q03HX008 (ip), vehicle: saline): 148 % of control | T/C (T/C endpoint: mean survival time, dose: 20.0 mg/kg/injection, schedule: Q03HX008 (ip), vehicle: saline): 141 % of control [9 of 10 alive]

COC(=O)Nc1cccc(OS(=O)(=O)N(C)C)c1
survivor count (T/C endpoint: mean survival time, dose: 200.0 mg/kg/injection, schedule: Q04DX003 (ip), vehicle: saline with Tween-80): 4 of 6 | survivor count [3]: 0 of 6

O=C(/C=C\c1ccc(/C=C/C(=O)Nc2cccc(C3=NCCCN3)c2)cc1)Nc1cccc(C2=NCCCN2)c1
T/C (T/C endpoint: median survival time, dose: 1.25 mg/kg/injection, schedule: Q01DX009 (ip), vehicle: Klucel (hydroxypropylcellulose) (HPC)): 126 and 128 % of control | T/C (T/C endpoint: median survival time, dose: 2.5 mg/kg/injection, schedule: Q01DX009 (ip), vehicle: Klucel (hydroxypropylcellulose) (HPC)): 139 and 147 % of control | T/C (T/C endpoint: median survival time, dose: 20.0 mg/kg/injection, schedule: Q01DX009 (ip), vehicle: Klucel (hydroxypropylcellulose) (HPC)): 137 % of control

CS/C([S-])=N/N=C/c1ccccn1.[Cl][Pt+]
survivor count [3]: 2 of 6

CCCCCCCCCC[Se]C#N
survivor count (T/C endpoint: mean survival time, dose: 100.0 mg/kg/injection, schedule: Q01DX001 (ip), vehicle: saline): 1 of 4 | survivor count (T/C endpoint: mean survival time, dose: 200.0 mg/kg/injection, schedule: Q01DX001 (ip), vehicle: saline): 0 of 4 | survivor count [2]: 0 of 4

C=CCC(C)(C)/C=N/N
survivor count [4]: 0 of 6

O=C(COc1ccccc1)N/N=C/c1cccc([N+](=O)[O-])c1
survivor count (T/C endpoint: mean survival time, dose: 100.0 mg/kg/injection, schedule: Q01DX009 (ip), vehicle: saline with Tween-80): 6 of 6

COc1cc2cc3cc4cc(OC)c(OC)cc4c(C)[n+]3cc2cc1OC (tested in a mixture with another compound)
survivor count (T/C endpoint: mean survival time, dose: 400.0 mg/kg/injection, schedule: Q01DX009 (ip), vehicle: suspension in saline): 4 of 6

COc1cc(C2CNCc3cc(O)c(OC)cc32)ccc1O (stereo not given)
survivor count [4]: 0 of 6

CSC(=S)N(C)/N=C/c1ccccn1
survivor count (T/C endpoint: mean survival time, dose: 400.0 mg/kg/injection, schedule: Q01DX009 (ip), vehicle: saline with Tween-80): 3 of 6

CC(=O)OCC1OC(N2C(=O)/C(=C/c3ccc(Cl)cc3)SC2=S)C(OC(C)=O)C(OC(C)=O)C1OC(C)=O (stereo not given)
survivor count (T/C endpoint: mean survival time, dose: 50.0 mg/kg/injection, schedule: Q01DX005 (ip), vehicle: distilled water + Tween-80): 3 of 6

Source: PubChem BioAssay AID256 (DTP/NCI, 2004)
